Values of other authors as cited in patent publication US20230227546A1, “TYPE 2 CYTOKINES AS PREDICTORS OF DISEASE SEVERITY AND/OR AS THERAPEUTIC TARGETS FOR COVID-19” (priority 2020, published 2023).
At least one compound was matched to its structure with a doubt left.

Test system: COVID-19
Details: COVID-19 patients requiring mechanical ventilation; cited from earlier work

Structure (SMILES): C[C@@H]1C[C@H]2[C@@H]3CCC4=CC(=O)C=C[C@]4(C)[C@@]3(F)[C@@H](O)C[C@]2(C)[C@@]1(O)C(=O)CO [dexamethasone]
- decrease in mortality: 29%
